In publication PMC8595642:
No constants are given. Whether binding was seen depends on the method and setting. In cells and extracts the contact can be indirect. Some results given as binding are weak or reduced against the parent protein; the word gives no strength.

Amino acid sequences for entries named in this document (tags omitted).
UniProt P22736: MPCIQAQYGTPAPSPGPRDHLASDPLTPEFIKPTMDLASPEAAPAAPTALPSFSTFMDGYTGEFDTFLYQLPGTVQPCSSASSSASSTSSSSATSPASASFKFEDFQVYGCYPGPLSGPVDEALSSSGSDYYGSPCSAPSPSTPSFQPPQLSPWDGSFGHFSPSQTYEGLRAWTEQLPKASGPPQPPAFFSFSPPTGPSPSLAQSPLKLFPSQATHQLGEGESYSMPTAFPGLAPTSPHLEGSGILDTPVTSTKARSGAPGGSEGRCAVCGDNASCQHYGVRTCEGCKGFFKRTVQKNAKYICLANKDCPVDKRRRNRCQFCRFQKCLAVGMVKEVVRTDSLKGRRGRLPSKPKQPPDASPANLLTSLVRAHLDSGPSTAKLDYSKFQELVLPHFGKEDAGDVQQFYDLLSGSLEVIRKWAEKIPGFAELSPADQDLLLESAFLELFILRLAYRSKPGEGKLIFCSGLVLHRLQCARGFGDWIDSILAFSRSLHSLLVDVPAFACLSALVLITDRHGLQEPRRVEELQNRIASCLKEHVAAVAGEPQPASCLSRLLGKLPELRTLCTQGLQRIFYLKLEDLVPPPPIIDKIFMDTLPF
UniProt Q13009: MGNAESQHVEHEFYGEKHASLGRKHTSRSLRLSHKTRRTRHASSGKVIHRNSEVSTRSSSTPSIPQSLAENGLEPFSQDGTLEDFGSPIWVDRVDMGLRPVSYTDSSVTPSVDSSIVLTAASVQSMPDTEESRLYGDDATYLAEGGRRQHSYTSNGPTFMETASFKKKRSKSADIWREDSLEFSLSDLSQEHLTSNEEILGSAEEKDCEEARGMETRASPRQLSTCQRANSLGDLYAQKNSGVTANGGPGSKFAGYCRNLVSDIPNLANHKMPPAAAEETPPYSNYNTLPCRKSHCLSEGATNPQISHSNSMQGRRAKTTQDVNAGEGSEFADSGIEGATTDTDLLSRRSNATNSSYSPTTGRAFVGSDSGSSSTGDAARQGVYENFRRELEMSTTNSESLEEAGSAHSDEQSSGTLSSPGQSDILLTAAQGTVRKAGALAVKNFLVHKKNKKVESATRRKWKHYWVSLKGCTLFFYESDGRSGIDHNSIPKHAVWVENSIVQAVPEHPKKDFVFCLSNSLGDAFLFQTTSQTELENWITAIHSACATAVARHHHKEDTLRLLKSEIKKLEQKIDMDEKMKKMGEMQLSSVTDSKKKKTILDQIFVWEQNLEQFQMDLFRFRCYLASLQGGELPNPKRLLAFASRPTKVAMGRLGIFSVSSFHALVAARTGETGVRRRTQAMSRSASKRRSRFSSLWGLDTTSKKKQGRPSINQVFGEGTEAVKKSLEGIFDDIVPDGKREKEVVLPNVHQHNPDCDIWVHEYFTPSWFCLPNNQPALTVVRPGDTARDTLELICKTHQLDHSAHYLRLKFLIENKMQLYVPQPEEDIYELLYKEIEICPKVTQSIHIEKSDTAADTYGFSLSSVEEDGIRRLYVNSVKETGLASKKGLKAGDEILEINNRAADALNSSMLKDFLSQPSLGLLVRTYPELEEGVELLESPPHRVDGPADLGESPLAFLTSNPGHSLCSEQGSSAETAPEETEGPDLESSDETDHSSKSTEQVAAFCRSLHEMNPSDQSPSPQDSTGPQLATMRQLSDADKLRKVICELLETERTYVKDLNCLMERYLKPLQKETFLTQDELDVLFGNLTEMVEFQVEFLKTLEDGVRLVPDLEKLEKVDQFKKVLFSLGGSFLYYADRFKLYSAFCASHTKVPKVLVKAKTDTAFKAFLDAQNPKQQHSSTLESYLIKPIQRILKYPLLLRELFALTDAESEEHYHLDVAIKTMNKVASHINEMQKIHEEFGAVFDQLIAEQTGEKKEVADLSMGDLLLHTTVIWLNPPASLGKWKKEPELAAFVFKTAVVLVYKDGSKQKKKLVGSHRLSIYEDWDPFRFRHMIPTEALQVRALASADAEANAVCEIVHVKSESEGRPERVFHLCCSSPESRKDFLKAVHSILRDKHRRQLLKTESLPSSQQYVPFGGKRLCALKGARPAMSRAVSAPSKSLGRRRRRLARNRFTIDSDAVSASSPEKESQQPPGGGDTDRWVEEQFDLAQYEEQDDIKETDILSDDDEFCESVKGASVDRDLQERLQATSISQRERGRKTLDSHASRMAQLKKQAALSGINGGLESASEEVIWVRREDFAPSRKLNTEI

Legend:
[1] = target: Myc-tagged Nur77 (doxycycline-inducible, H446 cells) (UniProt P22736); experiment: co-IP; nuclear fractions of H446 cells co-expressing doxycycline-induced Myc-Nur77 and exogenous TIAM1; Nur77 precipitated with a Myc-tag nanobody (Myc-Trap agarose); blot for TIAM1
[2] = target: Myc-tagged full-length Nur77 (HEK293T cells) (UniProt P22736); experiment: co-IP; nuclear extracts of HEK293T cells expressing NLS-TIAM1-WT or NLS-TIAM1-4A together with Myc-Nur77; Myc-Nur77 precipitated; immunoblot
[3] = target: Myc-tagged full-length Nur77 (HEK293T cells) (UniProt P22736); experiment: co-IP; HEK293T cells transfected for 48 h, whole cell lysate (IP lysis buffer, 1% Triton X-100, 150 mM NaCl), Myc-agarose beads 1 h at 4°C, five washes, immunoblot; for NLS-TIAM1 cells treated with DMSO or 50 uM NSC-23766 overnight

Substance | binding [1] | binding [2] | binding [3]
Exogenous full-length TIAM1 (H446 cells) (from UniProt Q13009 1-1591) | binds |  | 
TIAM1 tagged with a nuclear localization sequence, wild type (from UniProt Q13009 1-1591) |  | binds | binds
